Structures can show the parent of a compound that is named as a salt. The list shows a part of the results. Hit calls seldom repeat between salt and free forms of one compound.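 In K562 cells expressing nanoluciferase-fused kinases, luminescence was recorded at 4 h intervals between 2 and 18 h, normalized as percent of control with DMSO at 100% and a positive control at 0%. A significant (2 sigma) signal drop marks a time point as decreased. The authors' rule for a hit is not shown and takes in more than the number of time points.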
Experiments:
Experiment in all cases: kinase-Nluc reporter destabilization hit call (1 = scored as downregulated) (binary); higher = compound decreases kinase abundance
Settings in all cases: K562, 2-18 h
PDPK1 = PDPK1 (UniProt O15530)
PIK4CA = PIK4CA (UniProt P42356)
PIK4CB = PIK4CB (UniProt Q9UBF8)
PRKAA1 = PRKAA1 (UniProt Q13131)
PRKCA = PRKCA (UniProt P17252)
PTK2B = PTK2B (UniProt Q14289)
RAF1 = RAF1 (UniProt P04049)
[1] = molecular target: RAF1_S257L (clone: RAF1_mut) (UniProt P04049)
RET = RET (UniProt P07949)
[2] = molecular target: RET_M918T (clone: RET_mut) (UniProt P07949)
RIOK1 = RIOK1 (UniProt Q9BRS2)
RIPK1 = RIPK1 (UniProt Q13546)
RIPK2 = RIPK2 (UniProt O43353)
ROR2 = ROR2 (UniProt Q01974)
RPS6KA1 = RPS6KA1 (UniProt Q15418)
SPHK1 = SPHK1 (UniProt Q9NYA1)
SRC = SRC (UniProt P12931)
STK24 = STK24 (UniProt Q9Y6E0)
PLK1 = PLK1 (UniProt P53350)
PTK2 = PTK2 (UniProt Q05397)

Sequences of proteins named here, by UniProt entry; tags and fusion partners are left off. A change or cut given only in a name is not applied to a line headed by its entry.
UniProt O15530: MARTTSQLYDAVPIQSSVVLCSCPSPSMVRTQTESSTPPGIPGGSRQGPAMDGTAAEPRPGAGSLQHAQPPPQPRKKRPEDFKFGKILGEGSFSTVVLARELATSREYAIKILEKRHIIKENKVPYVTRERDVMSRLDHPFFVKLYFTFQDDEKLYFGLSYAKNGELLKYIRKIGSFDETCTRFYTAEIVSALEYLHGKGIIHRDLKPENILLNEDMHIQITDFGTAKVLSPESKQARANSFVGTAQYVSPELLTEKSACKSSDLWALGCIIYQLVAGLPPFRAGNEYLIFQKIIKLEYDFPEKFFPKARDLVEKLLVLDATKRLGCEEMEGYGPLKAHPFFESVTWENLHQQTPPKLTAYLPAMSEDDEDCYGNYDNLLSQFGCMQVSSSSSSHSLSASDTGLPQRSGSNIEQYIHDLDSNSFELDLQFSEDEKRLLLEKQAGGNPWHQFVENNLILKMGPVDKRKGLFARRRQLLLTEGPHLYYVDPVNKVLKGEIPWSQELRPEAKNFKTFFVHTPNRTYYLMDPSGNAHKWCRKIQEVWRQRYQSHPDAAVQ
UniProt Q9UBF8: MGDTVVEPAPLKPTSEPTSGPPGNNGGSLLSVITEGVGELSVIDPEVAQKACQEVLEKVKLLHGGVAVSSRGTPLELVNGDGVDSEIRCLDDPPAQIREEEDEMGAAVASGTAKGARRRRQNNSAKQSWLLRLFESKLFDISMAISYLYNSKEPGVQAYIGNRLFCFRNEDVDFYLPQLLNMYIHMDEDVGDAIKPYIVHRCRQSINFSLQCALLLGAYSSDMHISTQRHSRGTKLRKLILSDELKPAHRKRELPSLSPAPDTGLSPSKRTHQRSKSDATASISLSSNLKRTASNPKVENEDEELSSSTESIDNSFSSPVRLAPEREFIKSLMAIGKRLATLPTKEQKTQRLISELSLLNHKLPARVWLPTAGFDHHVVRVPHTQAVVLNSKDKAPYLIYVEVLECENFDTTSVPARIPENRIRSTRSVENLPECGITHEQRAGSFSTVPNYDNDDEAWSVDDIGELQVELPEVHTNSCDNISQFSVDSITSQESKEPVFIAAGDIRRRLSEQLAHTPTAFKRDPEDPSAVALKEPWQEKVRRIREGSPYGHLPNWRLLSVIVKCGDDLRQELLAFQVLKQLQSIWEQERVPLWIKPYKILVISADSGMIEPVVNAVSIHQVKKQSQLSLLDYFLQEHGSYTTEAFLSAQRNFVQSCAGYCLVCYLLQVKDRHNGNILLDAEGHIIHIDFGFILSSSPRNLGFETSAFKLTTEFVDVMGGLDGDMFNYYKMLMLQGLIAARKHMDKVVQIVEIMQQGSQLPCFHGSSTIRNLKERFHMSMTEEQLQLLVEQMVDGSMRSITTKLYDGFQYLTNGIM
UniProt Q13131: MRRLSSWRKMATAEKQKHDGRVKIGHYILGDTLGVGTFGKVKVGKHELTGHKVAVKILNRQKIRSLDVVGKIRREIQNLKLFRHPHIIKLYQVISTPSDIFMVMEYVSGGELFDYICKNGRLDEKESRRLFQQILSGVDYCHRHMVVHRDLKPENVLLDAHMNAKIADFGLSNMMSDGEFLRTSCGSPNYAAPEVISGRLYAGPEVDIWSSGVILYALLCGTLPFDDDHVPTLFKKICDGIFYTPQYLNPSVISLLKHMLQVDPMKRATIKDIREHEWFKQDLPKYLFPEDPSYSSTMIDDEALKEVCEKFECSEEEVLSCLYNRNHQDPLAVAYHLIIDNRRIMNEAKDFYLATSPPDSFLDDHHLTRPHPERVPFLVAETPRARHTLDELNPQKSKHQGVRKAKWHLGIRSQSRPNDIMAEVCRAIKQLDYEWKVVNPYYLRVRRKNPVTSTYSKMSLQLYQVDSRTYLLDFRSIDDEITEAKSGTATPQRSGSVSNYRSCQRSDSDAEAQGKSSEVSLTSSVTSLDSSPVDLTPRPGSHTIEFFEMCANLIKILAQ
UniProt Q14289, whole entry, looked up: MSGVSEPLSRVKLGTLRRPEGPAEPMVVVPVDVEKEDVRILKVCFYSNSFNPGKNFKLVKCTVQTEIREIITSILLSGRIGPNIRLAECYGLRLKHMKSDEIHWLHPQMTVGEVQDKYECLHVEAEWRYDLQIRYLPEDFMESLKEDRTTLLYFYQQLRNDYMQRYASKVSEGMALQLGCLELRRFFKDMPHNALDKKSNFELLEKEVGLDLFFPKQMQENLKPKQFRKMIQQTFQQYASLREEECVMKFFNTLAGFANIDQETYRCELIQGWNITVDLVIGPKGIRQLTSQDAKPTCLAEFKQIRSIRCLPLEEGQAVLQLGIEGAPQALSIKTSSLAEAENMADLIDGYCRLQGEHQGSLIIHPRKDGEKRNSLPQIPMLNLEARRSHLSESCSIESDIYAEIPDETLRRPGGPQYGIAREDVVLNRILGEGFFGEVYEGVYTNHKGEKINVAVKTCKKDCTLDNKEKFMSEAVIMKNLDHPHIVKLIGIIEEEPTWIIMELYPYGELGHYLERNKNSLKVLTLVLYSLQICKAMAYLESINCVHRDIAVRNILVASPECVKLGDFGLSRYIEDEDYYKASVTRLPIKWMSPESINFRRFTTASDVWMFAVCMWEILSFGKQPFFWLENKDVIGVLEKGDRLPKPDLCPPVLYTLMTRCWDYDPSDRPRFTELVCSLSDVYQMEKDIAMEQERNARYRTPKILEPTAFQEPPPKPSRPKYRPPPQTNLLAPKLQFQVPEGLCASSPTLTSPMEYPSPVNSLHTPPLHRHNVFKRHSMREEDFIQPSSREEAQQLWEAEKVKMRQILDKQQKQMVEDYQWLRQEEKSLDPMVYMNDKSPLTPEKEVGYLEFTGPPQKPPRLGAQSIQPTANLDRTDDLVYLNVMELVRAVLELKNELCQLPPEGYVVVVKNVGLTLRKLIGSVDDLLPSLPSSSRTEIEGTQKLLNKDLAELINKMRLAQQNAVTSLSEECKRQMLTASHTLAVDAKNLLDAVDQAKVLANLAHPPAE
UniProt P07949, whole entry, looked up: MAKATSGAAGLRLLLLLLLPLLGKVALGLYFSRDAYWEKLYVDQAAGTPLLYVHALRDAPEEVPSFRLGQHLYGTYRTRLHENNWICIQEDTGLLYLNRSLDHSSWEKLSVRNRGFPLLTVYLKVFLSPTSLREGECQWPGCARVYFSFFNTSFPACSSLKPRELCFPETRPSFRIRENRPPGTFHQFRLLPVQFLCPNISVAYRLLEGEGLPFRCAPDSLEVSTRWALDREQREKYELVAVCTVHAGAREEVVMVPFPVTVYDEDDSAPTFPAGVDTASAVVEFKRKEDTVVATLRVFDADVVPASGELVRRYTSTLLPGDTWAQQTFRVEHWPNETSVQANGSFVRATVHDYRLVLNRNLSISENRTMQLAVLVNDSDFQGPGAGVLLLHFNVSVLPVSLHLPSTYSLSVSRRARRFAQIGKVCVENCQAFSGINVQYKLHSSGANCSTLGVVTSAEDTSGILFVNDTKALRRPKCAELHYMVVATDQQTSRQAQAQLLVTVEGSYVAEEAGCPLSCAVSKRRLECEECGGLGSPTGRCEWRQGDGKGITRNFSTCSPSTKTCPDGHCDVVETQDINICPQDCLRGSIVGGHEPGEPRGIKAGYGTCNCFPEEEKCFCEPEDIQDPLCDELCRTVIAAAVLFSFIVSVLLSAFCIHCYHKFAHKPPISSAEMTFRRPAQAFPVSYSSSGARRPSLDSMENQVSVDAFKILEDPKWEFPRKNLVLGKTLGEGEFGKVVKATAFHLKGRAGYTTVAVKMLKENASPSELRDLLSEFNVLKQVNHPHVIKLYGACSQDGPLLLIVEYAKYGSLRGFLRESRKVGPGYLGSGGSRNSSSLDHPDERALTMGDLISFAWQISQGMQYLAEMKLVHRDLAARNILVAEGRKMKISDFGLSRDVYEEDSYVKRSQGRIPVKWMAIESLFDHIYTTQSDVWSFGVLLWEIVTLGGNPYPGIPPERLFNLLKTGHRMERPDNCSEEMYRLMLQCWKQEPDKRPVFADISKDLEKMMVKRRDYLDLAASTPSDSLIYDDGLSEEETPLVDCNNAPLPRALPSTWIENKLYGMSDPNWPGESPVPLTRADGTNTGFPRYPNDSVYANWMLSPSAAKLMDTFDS
UniProt Q9NYA1, whole entry: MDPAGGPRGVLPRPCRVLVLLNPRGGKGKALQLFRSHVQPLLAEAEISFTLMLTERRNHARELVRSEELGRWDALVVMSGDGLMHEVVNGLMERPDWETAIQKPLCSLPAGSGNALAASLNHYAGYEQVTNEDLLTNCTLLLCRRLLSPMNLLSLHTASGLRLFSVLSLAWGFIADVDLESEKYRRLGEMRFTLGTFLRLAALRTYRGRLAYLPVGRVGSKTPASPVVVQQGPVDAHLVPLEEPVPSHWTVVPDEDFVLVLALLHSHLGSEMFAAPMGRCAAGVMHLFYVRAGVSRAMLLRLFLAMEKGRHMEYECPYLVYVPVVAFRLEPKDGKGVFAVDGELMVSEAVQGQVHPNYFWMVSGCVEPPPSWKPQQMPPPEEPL
UniProt Q9Y6E0: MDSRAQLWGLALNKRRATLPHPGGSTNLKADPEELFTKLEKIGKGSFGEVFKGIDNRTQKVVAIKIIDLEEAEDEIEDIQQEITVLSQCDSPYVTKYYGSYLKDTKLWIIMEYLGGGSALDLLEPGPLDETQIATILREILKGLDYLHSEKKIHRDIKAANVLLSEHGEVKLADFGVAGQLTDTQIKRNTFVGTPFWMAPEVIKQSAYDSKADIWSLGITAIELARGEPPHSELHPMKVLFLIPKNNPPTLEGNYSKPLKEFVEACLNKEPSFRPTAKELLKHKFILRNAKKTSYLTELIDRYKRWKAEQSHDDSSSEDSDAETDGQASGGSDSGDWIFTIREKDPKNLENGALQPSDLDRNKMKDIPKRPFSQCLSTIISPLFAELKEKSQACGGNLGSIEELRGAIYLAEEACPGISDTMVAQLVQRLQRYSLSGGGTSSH
UniProt P53350, whole entry: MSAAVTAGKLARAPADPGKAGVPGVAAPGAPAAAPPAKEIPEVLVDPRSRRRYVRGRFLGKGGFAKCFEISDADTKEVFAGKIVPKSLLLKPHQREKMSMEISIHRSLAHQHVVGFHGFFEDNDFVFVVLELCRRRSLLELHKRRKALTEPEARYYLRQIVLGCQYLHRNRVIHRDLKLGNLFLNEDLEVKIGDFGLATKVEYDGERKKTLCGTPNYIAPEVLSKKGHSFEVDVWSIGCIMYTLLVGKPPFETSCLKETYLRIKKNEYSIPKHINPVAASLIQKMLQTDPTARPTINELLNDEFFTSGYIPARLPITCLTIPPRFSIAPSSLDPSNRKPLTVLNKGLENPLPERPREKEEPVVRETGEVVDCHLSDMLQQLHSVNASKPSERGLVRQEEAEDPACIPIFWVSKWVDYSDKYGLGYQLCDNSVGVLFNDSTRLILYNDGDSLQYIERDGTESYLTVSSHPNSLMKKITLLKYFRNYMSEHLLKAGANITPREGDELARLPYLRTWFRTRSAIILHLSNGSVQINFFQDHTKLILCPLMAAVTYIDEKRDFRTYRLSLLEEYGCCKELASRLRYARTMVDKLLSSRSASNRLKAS
UniProt Q05397, whole entry, looked up: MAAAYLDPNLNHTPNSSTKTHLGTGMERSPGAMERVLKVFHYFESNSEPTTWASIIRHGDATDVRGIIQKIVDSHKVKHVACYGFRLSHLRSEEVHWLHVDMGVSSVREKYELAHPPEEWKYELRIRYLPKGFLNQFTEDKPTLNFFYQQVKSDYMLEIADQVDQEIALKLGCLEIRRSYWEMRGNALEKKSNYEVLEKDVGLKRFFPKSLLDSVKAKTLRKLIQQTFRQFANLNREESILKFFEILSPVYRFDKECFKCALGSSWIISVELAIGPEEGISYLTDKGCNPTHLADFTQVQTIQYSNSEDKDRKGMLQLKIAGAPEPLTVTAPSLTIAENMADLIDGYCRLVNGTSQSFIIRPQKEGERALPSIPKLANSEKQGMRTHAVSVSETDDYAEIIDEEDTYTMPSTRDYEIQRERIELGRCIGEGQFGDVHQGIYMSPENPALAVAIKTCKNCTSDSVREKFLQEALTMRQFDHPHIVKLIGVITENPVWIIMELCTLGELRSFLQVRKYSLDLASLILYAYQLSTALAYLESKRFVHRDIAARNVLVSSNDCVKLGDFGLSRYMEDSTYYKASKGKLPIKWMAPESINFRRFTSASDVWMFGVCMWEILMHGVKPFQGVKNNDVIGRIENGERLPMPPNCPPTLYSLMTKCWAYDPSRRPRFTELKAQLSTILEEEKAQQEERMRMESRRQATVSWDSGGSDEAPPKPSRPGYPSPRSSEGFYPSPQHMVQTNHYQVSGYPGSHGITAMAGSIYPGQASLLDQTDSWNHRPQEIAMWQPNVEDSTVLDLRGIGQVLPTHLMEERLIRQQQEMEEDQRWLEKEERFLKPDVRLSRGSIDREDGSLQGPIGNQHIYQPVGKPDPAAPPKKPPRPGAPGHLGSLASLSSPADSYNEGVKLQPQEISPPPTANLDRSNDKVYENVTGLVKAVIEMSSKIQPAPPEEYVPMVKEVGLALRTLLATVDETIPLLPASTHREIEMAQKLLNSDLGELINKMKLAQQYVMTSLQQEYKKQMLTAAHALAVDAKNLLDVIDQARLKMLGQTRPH

Measured: kinase-Nluc reporter destabilization hit call

O=S(=O)(c1cccc2c(O)nccc12)N1CCCNCC1 [Hydroxyfasudil (hydrochloride)]
inactive: PDPK1; 10 µM 0 | PIK4CA; 10 µM 0 | PIK4CB; 10 µM 0 | PRKAA1; 10 µM 0 | PRKCA; 10 µM 0 | PTK2B; 10 µM 0 | RAF1; 10 µM 0 | [1]; 10 µM 0 | RET; 10 µM 0 | [2]; 10 µM 0 | RIOK1; 10 µM 0 | RIPK1; 10 µM 0 | RIPK2; 10 µM 0 | ROR2; 10 µM 0 | RPS6KA1; 10 µM 0 | SPHK1; 10 µM 0 | SRC; 10 µM 0 | STK24; 10 µM 0

COc1cc(N2CCC(N3CCN(C)CC3)CC2)ccc1Nc1ncc(Cl)c(Nc2ccccc2S(=O)(=O)C(C)C)n1
inactive: PDPK1; 2.5 µM 0 | PIK4CA; 2.5 µM 0 | PIK4CB; 2.5 µM 0 | PLK1; 2.5 µM 0 | PRKAA1; 2.5 µM 0 | PRKCA; 2.5 µM 0 | PTK2; 2.5 µM 0 | PTK2B; 2.5 µM 0 | RAF1; 2.5 µM 0 | [1]; 2.5 µM 0 | RIOK1; 2.5 µM 0 | RIPK1; 2.5 µM 0 | RIPK2; 2.5 µM 0 | ROR2; 2.5 µM 0 | RPS6KA1; 2.5 µM 0 | SPHK1; 2.5 µM 0 | SRC; 2.5 µM 0 | STK24; 2.5 µM 0

O=C1NCCc2[nH]c(-c3ccncc3)cc21
inactive: PDPK1; 2.5 µM 0 | PIK4CA; 2.5 µM 0 | PIK4CB; 2.5 µM 0 | PRKAA1; 2.5 µM 0 | PRKCA; 2.5 µM 0 | PTK2; 2.5 µM 0 | PTK2B; 2.5 µM 0 | RAF1; 2.5 µM 0 | [1]; 2.5 µM 0 | RET; 2.5 µM 0 | [2]; 2.5 µM 0 | RIOK1; 2.5 µM 0 | RIPK1; 2.5 µM 0 | RIPK2; 2.5 µM 0 | ROR2; 2.5 µM 0 | RPS6KA1; 2.5 µM 0 | SPHK1; 2.5 µM 0 | SRC; 2.5 µM 0 | STK24; 2.5 µM 0

COc1ccc(-c2cc3nccn3c(Nc3ncccc3C(N)=O)n2)cc1OC [BAY 61-3606 (dihydrochloride)]
inactive: PDPK1; 2.5 µM 0 | PIK4CA; 2.5 µM 0 | PIK4CB; 2.5 µM 0 | PLK1; 2.5 µM 0 | PRKAA1; 2.5 µM 0 | PRKCA; 2.5 µM 0 | PTK2; 2.5 µM 0 | PTK2B; 2.5 µM 0 | RAF1; 2.5 µM 0 | [1]; 2.5 µM 0 | RIOK1; 2.5 µM 0 | RIPK1; 2.5 µM 0 | RIPK2; 2.5 µM 0 | ROR2; 2.5 µM 0 | RPS6KA1; 2.5 µM 0 | SPHK1; 2.5 µM 0 | SRC; 2.5 µM 0 | STK24; 2.5 µM 0

CNC(=O)c1cc(Oc2ccc(NC(=O)Nc3ccc(Cl)c(C(F)(F)F)c3)cc2)ccn1 [Sorafenib (Tosylate)]
inactive: PDPK1; 10 µM 0 | PIK4CA; 10 µM 0 | PIK4CB; 10 µM 0 | PLK1; 10 µM 0 | PRKAA1; 10 µM 0 | PRKCA; 10 µM 0 | PTK2; 10 µM 0 | PTK2B; 10 µM 0 | RAF1; 10 µM 0 | [1]; 10 µM 0 | RET; 10 µM 0 | [2]; 10 µM 0 | RIOK1; 10 µM 0 | RIPK1; 10 µM 0 | RIPK2; 10 µM 0 | ROR2; 10 µM 0 | RPS6KA1; 10 µM 0 | SPHK1; 10 µM 0 | STK24; 10 µM 0

CC(=O)c1c(C)c2cnc(Nc3ccc(N4CCN(C(=O)CCCCCC(=O)N[C@H](C(=O)N5C[C@H](O)C[C@H]5C(=O)NCc5ccc(-c6scnc6C)cc5)C(C)(C)C)CC4)cn3)nc2n(C2CCCC2)c1=O
inactive: PDPK1; 2.5 µM 0 | PIK4CA; 2.5 µM 0 | PIK4CB; 2.5 µM 0 | PLK1; 2.5 µM 0 | PRKAA1; 2.5 µM 0 | PRKCA; 2.5 µM 0 | PTK2; 2.5 µM 0 | PTK2B; 2.5 µM 0 | [1]; 2.5 µM 0 | RIOK1; 2.5 µM 0 | RIPK1; 2.5 µM 0 | RIPK2; 2.5 µM 0 | ROR2; 2.5 µM 0 | RPS6KA1; 2.5 µM 0 | SPHK1; 2.5 µM 0 | SRC; 2.5 µM 0 | STK24; 2.5 µM 0

CC(C)(C)n1nc(-c2ccc(Cl)cc2)c2c(N)ncnc21
inactive: PDPK1; 10 µM 0 | PIK4CA; 10 µM 0 | PIK4CB; 10 µM 0 | PLK1; 10 µM 0 | PRKAA1; 10 µM 0 | PRKCA; 10 µM 0 | PTK2; 10 µM 0 | PTK2B; 10 µM 0 | RAF1; 10 µM 0 | [1]; 10 µM 0 | RET; 10 µM 0 | [2]; 10 µM 0 | RIOK1; 10 µM 0 | RIPK1; 10 µM 0 | RIPK2; 10 µM 0 | ROR2; 10 µM 0 | RPS6KA1; 10 µM 0 | SPHK1; 10 µM 0 | SRC; 10 µM 0 | STK24; 10 µM 0

O=C(c1ccc(/C=C/c2n[nH]c3ccccc23)cc1)N1CCNCC1
inactive: PDPK1; 2.5 µM 0 | PIK4CA; 2.5 µM 0 | PIK4CB; 2.5 µM 0 | PLK1; 2.5 µM 0 | PRKAA1; 2.5 µM 0 | PRKCA; 2.5 µM 0 | PTK2; 2.5 µM 0 | PTK2B; 2.5 µM 0 | RAF1; 2.5 µM 0 | [1]; 2.5 µM 0 | RET; 2.5 µM 0 | [2]; 2.5 µM 0 | RIOK1; 2.5 µM 0 | RIPK1; 2.5 µM 0 | RIPK2; 2.5 µM 0 | ROR2; 2.5 µM 0 | RPS6KA1; 2.5 µM 0 | SPHK1; 2.5 µM 0 | STK24; 2.5 µM 0

3 compounds out of the list, arranged by count of non-hydrogen atoms, smallest number first.
O=S(=O)(c1cccc2c(O)nccc12)N1CCCNCC1 [Hydroxyfasudil (hydrochloride)]
inactive: PDPK1; 10 µM 0 | PIK4CA; 10 µM 0 | PIK4CB; 10 µM 0 | PRKAA1; 10 µM 0 | PRKCA; 10 µM 0 | PTK2B; 10 µM 0 | RAF1; 10 µM 0 | [1]; 10 µM 0 | RET; 10 µM 0 | [2]; 10 µM 0 | RIOK1; 10 µM 0 | RIPK1; 10 µM 0 | RIPK2; 10 µM 0 | ROR2; 10 µM 0 | RPS6KA1; 10 µM 0 | SPHK1; 10 µM 0 | SRC; 10 µM 0 | STK24; 10 µM 0

COc1ccc(-c2cc3nccn3c(Nc3ncccc3C(N)=O)n2)cc1OC [BAY 61-3606 (dihydrochloride)]
inactive: PDPK1; 2.5 µM 0 | PIK4CA; 2.5 µM 0 | PIK4CB; 2.5 µM 0 | PLK1; 2.5 µM 0 | PRKAA1; 2.5 µM 0 | PRKCA; 2.5 µM 0 | PTK2; 2.5 µM 0 | PTK2B; 2.5 µM 0 | RAF1; 2.5 µM 0 | [1]; 2.5 µM 0 | RIOK1; 2.5 µM 0 | RIPK1; 2.5 µM 0 | RIPK2; 2.5 µM 0 | ROR2; 2.5 µM 0 | RPS6KA1; 2.5 µM 0 | SPHK1; 2.5 µM 0 | SRC; 2.5 µM 0 | STK24; 2.5 µM 0

CNC(=O)c1cc(Oc2ccc(NC(=O)Nc3ccc(Cl)c(C(F)(F)F)c3)cc2)ccn1 [Sorafenib (Tosylate)]
inactive: PDPK1; 10 µM 0 | PIK4CA; 10 µM 0 | PIK4CB; 10 µM 0 | PLK1; 10 µM 0 | PRKAA1; 10 µM 0 | PRKCA; 10 µM 0 | PTK2; 10 µM 0 | PTK2B; 10 µM 0 | RAF1; 10 µM 0 | [1]; 10 µM 0 | RET; 10 µM 0 | [2]; 10 µM 0 | RIOK1; 10 µM 0 | RIPK1; 10 µM 0 | RIPK2; 10 µM 0 | ROR2; 10 µM 0 | RPS6KA1; 10 µM 0 | SPHK1; 10 µM 0 | STK24; 10 µM 0

The list continues.

CCN(CC)CCNC(=O)c1c(C)[nH]c(/C=C2\C(=O)Nc3ccc(F)cc32)c1C [Sunitinib]
inactive: PDPK1; 2.5 µM 0 | PIK4CA; 2.5 µM 0 | PIK4CB; 2.5 µM 0 | PLK1; 2.5 µM 0 | PRKAA1; 2.5 µM 0 | PRKCA; 2.5 µM 0 | PTK2B; 2.5 µM 0 | RAF1; 2.5 µM 0 | [1]; 2.5 µM 0 | RET; 2.5 µM 0 | [2]; 2.5 µM 0 | RIOK1; 2.5 µM 0 | RIPK1; 2.5 µM 0 | RIPK2; 2.5 µM 0 | ROR2; 2.5 µM 0 | RPS6KA1; 2.5 µM 0 | SPHK1; 2.5 µM 0 | STK24; 2.5 µM 0

Cc1cc(C)n2c1C=C1C=CC(CCC(=O)NCCN3CCN(C/C=C/C(=O)N4CCCC(n5nc(-c6ccc(Oc7ccccc7)cc6)c6c(N)ncnc65)C4)CC3)=[N+]1[B-]2(F)F (stereo not given)
inactive: PDPK1; 2.5 µM 0 | PIK4CA; 2.5 µM 0 | PIK4CB; 2.5 µM 0 | PLK1; 2.5 µM 0 | PRKAA1; 2.5 µM 0 | PRKCA; 2.5 µM 0 | PTK2; 2.5 µM 0 | PTK2B; 2.5 µM 0 | RAF1; 2.5 µM 0 | [1]; 2.5 µM 0 | RET; 2.5 µM 0 | RIOK1; 2.5 µM 0 | RIPK1; 2.5 µM 0 | RIPK2; 2.5 µM 0 | ROR2; 2.5 µM 0 | RPS6KA1; 2.5 µM 0 | SPHK1; 2.5 µM 0 | SRC; 2.5 µM 0 | STK24; 2.5 µM 0

Source: the supplement of paper PMC12823440, “Inhibitors supercharge kinase turnover through native proteolytic circuits” (Nature, 2025)
